# PubChem BioAssay AID504808 – Drosophila RNAi Screening Center | 2011
# Assay: 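Fly genes required to hold E2F transcription in check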 (primary screen)
# Cell system: Drosophila S2 cells
# Reagent: long dsRNA against Drosophila genes
# Detection: 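Firefly luciferase driven by E2F sites, normalised to Renilla luciferase on the same minimal promoter, measured by plate reader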
# Scale: E2F firefly: higher = more E2F reporter activity; Renilla normaliser: higher = more normaliser reporter signal
# Call rule: 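Called active if the normalised E2F reporter went up by over 50%; the cutoff is arbitrary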
# In all, the deposit lists about 21,000 reagents; below is an unselected part of those that have a named target and a result. Of all reagents, 18 (0.084%) are marked active. 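Raw counts without plate normalisation, one of two replicates; the ratio scores behind the calls were not deposited.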 Reagents against one gene are numbered here. A plus sign joins genes that one reagent is predicted to hit. Not given: the amount of reagent, the time to read-out.
target,dsRNA no.,"E2F firefly, rep 1","Renilla normaliser, rep 1",Call
dnk (deoxyribonucleoside kinase),1,1.05e5,6603,inactive
CG33543,1,1.75e5,6005,inactive
CG33543,2,1.65e5,5348,inactive
CG15914,1,2.41e5,7659,inactive
CG3640,1,1.15e5,5078,inactive
CG1428,1,1.14e5,4363,inactive
futsch,1,84428,2737,inactive
futsch,2,1.08e5,5645,inactive
futsch,3,1995,960,inactive
futsch,4,1.27e5,6071,inactive
CG12655,1,1.39e5,6533,inactive
Zip102B (Zinc/iron regulated transporter-related protein 102B),1,1.17e5,5159,inactive
fru (fruitless),1,61767,5070,inactive
fru (fruitless),2,1.09e5,2085,inactive
fru (fruitless),3,1.47e5,7301,inactive
CG6023,1,1.74e5,5879,inactive
GstE10 (Glutathione S transferase E10),1,1.50e5,4770,inactive
Hel25E (Helicase at 25E),1,56112,213,inactive
Pa1 (PTIP associated 1),1,1.13e5,5628,inactive
CG34396,1,1.01e5,4609,inactive
CG34396,2,1.01e5,3742,inactive
CG8326,1,1.46e5,6020,inactive
Nepl18 (Neprilysin-like 18),1,1.12e5,6164,inactive
CG42390,1,62694,3389,inactive
CG17199,1,1.38e5,6849,inactive
CG11345,1,83229,3567,inactive
CG4119,1,7022,744,inactive
Tbcd (Tubulin-binding cofactor D),1,83969,3794,inactive
CG6984,1,73142,3658,inactive
"GatB (Glutamyl-tRNA amidotransferase, subunit B)",1,1.14e5,6108,inactive
CG5078,1,1.44e5,6652,inactive
betaTub65B (beta-Tubulin at 65B),1,88727,3957,inactive
CG30083,1,1.39e5,5132,inactive
sqd (squid),1,1.05e5,5510,inactive
sqd (squid),2,54010,4803,inactive
Mdr49 (Multi drug resistance 49),1,114,32,inactive
CG2736,1,75476,2785,inactive
CG32017,1,77956,2707,inactive
Sik3 (Salt-inducible kinase 3),1,1.37e5,5048,inactive
Sik3 (Salt-inducible kinase 3),2,71569,3936,inactive
IPIP (Inositol phosphatase interacting protein),1,95949,4008,inactive
CCT2 (Chaperonin containing TCP1 subunit 2),1,8210,760,inactive
vanin-like,1,76995,2131,inactive
Graf (GTPase regulator associated with FAK),1,8044,796,inactive
CG42694,1,1.25e5,4785,inactive
spd-2 (spindle defective 2),1,92983,3927,inactive
ICA69 (Islet cell autoantigen 69 kDa),1,84141,3838,inactive
Him (Holes in muscle),1,1.46e5,6116,inactive
CG12826,1,1.59e5,5572,inactive
mask (multiple ankyrin repeats single KH domain),1,1.36e5,6478,inactive
mask (multiple ankyrin repeats single KH domain),2,78586,3916,inactive
mask (multiple ankyrin repeats single KH domain),3,66440,3694,inactive
CG13786,1,1.49e5,5353,inactive
CG6094,1,75391,3051,inactive
Ir56a (Ionotropic receptor 56a),1,1.75e5,7306,inactive
CG10171,1,88239,4003,inactive
AlkB,1,85211,3067,inactive
Syx18 (Syntaxin 18),1,66870,4280,inactive
CG17568,1,86405,4298,inactive
cbt (cabut),1,77314,3790,inactive

Part of the list above, reduced to “Renilla normaliser, rep 1”:
CG12655	6533
Zip102B (Zinc/iron regulated transporter-related protein 102B)	5159
fru (fruitless) #1	5070
fru (fruitless) #2	2085
fru (fruitless) #3	7301
CG6023	5879
GstE10 (Glutathione S transferase E10)	4770
Hel25E (Helicase at 25E)	213
Pa1 (PTIP associated 1)	5628
CG34396 #1	4609
CG34396 #2	3742
CG8326	6020
Nepl18 (Neprilysin-like 18)	6164
CG42390	3389
CG17199	6849
CG11345	3567

Continued:
target,dsRNA no.,"E2F firefly, rep 1","Renilla normaliser, rep 1",Call
rt (rotated abdomen),1,1.13e5,6213,inactive
Cul4 (Cullin 4),1,2937,235,inactive
stx (stuxnet),1,90858,4005,inactive
stx (stuxnet),2,89851,4296,inactive
CG7715,1,1.45e5,7581,inactive
Scp2 (Sarcoplasmic calcium-binding protein 2),1,93319,2268,inactive
Scp2 (Sarcoplasmic calcium-binding protein 2),2,1.11e5,6316,inactive
Cyp316a1 (Cytochrome P450 316a1),1,96080,4069,inactive
eIF4EHP,1,89065,2384,inactive
eIF4EHP,2,77152,3315,inactive
Ugt36A1 + CG15418,1,1.61e5,5075,inactive
CG30356,1,1.26e5,5522,inactive
Unc-115b + p24-2 + Unc-115a,1,1.47e5,7671,inactive
Nadsyn (NAD synthetase),1,7480,896,inactive
Ir60e (Ionotropic receptor 60e),1,1.03e5,4405,inactive
CG33110,1,56026,3520,inactive
CG33110,2,1.04e5,5202,inactive
Vrp1 (Verprolin 1),1,84847,3586,inactive
CLS (Cardiolipin synthase),1,1.09e5,5204,inactive
CG4676,1,90076,3978,inactive
kdn (knockdown),1,6018,324,inactive
Hrd3 (HMG-coA reductase degradation 3),1,63864,2994,inactive
CG5290,1,61954,3265,inactive
spartin,1,1.37e5,6180,inactive
Sema1a (Semaphorin 1a),1,1.49e5,4961,inactive
CG14744,1,1.47e5,4406,inactive
CG33288,1,87004,3932,inactive
Tbp (TATA binding protein),1,83056,3592,inactive
CG3124,1,87683,3974,inactive
CG8545,1,159,34,inactive
pes (peste),1,1.31e5,5238,inactive
CG14543,1,86852,6047,inactive
CG13958 (retired record),1,82084,3903,inactive
mge (maggie),1,1.11e5,4838,inactive
CG5662,1,45952,3445,inactive
l(3)mbt (lethal (3) malignant brain tumor),1,2437,920,active
CG6885,1,1.34e5,7680,inactive
cmb (combover),1,1.33e5,7672,inactive
CG13065,1,1.41e5,7065,inactive
CG7607,1,1.09e5,6502,inactive
CG3184,1,8019,800,inactive
"mAChR-C (muscarinic Acetylcholine Receptor, C-type)",1,97403,5250,inactive
Frl (Formin-like),1,1.27e5,3008,inactive
Frl (Formin-like),2,1.50e5,7772,inactive
Frl (Formin-like),3,1.40e5,6516,inactive
Prp38 (pre-mRNA processing factor 38),1,2932,175,inactive
CG7860,1,8167,824,inactive
